PubChem BioAssay AID1508597 – Cure First | 2020

Assay: 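Knock-downs altering ovarian cancer cell survival with or without PARP inhibitor rucaparib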 (primary screen)
Cells: human ovarian carcinoma lines grown from tumours: OCI-P5x (papillary serous) and OCI-C5x (clear cell)
Knock-down reagent: siRNA pool against human genes, 1.25 pmol siRNA per well
Duration: 72 h or 96 h, depending on the cell culture
Challenge: rucaparib 20 µM (about IC30) or vehicle, present until read-out
Rucaparib or vehicle: Rucaparib
Cell line: OCI-P5x (serous)
Detection: 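Luminescent ATP-based viability assay read 72 or 96 h after transfection, depending on culture, given as normalised percent viability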
Scale: viability, normalised: higher = more viable cells remaining
Rule for the call: 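Active when normalised viability falls below 80 percent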
Meaning of the calls: active = viability under 80%; inactive = viability 80% or more
This is an unselected part of the about 2,100 reagents, in one setting of the screen. 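Calls flag viability under 80% in either arm, not effects specific to rucaparib; the reference for percent is not stated.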 Some reagents were tested in more than one well and are listed for each. The record does not give: the 100% reference.

Gene | technical replicate | viability, normalised (%) | Outcome
USP21 | 1 | 100 | inactive
USP21 | 2 | 71.6 | active
USP21 | 3 | 70.9 | active
BAK1 | 1 | 76.5 | active
BAK1 | 2 | 83.8 | inactive
BAK1 | 3 | 88.8 | inactive
CLDN3 | 1 | 56.6 | active
CLDN3 | 2 | 55.3 | active
CLDN3 | 3 | 42.8 | active
PRDM5 | 1 | 54.7 | active
PRDM5 | 2 | 60.5 | active
PRDM5 | 3 | 58.8 | active
PLCB2 | 1 | 67.8 | active
PLCB2 | 2 | 76.3 | active
PLCB2 | 3 | 68.5 | active
DDB1 | 1 | 74.8 | active
DDB1 | 1 | 58.7 | active
DDB1 | 2 | 76 | active
DDB1 | 2 | 55.8 | active
DDB1 | 3 | 59.1 | active
DDB1 | 3 | 59.9 | active
SETD4 | 1 | 59 | active
SETD4 | 2 | 71.4 | active
SETD4 | 3 | 63.5 | active
CLDN5 | 1 | 59.9 | active
CLDN5 | 2 | 67.3 | active
CLDN5 | 3 | 65.4 | active
HNRNPU | 1 | 58.1 | active
HNRNPU | 2 | 88.5 | inactive
HNRNPU | 3 | 81.1 | inactive
COX6C | 1 | 74.7 | active
COX6C | 2 | 73.3 | active
COX6C | 3 | 84.4 | inactive
BRD9 | 1 | 71.2 | active
BRD9 | 2 | 77.4 | active
BRD9 | 3 | 74.4 | active
SCMH1 | 1 | 40.7 | active
SCMH1 | 2 | 44.7 | active
SCMH1 | 3 | 47.8 | active
SUMO1 | 1 | 62.9 | active
SUMO1 | 2 | 66.1 | active
SUMO1 | 3 | 48.6 | active
SMC1B | 1 | 49.6 | active
SMC1B | 2 | 46.3 | active
SMC1B | 3 | 39.3 | active
TIPARP | 1 | 60.4 | active
TIPARP | 2 | 56.4 | active
TIPARP | 3 | 61.5 | active
EXT1 | 1 | 89.3 | inactive
EXT1 | 2 | 81.8 | inactive
EXT1 | 3 | 84.1 | inactive
WNK3 | 1 | 108 | inactive
WNK3 | 2 | 93.6 | inactive
WNK3 | 3 | 87.8 | inactive
RPS6KA5 | 1 | 91.4 | inactive
RPS6KA5 | 2 | 101 | inactive
RPS6KA5 | 3 | 70 | active

6 entries already listed, ordered by “viability, normalised (%)”, highest first:
Gene | technical replicate | viability, normalised (%) | Outcome
BRD9 | 3 | 74.4 | active
SUMO1 | 2 | 66.1 | active
SUMO1 | 1 | 62.9 | active
SCMH1 | 3 | 47.8 | active
SCMH1 | 2 | 44.7 | active
SCMH1 | 1 | 40.7 | active
